# Where a name gives a salt, the structure may show the parent alone. This is one part of the list. Repeats in this data set agree poorly, so a single value says little.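 JEG3 cells stably carry tetracycline-induced wild-type human LRH-1, a heavily sumoylated nuclear receptor. APOC3 and MUC1 are SUMO-sensitive transcripts, raised by SUMO-less LRH-1 or UBC9 knockdown, measured by RT-qPCR against TBP and DMSO controls. A robust Z-score above +2 or below -2 marked a primary hit before toxicity and TBP filtering.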
# System: JEG3 expressing hLRH-1
# Experiment: MUC1 transcript change (ddCt vs TBP and DMSO), Z-score over library; higher = higher MUC1 expression
# Conditions: 10 µM; time (hr): 24
row,Compound,MUC1 transcript change (Z-score)
1,CC(=O)OCC(=O)[C@@]1(OC(C)=O)[C@@H](C)C[C@H]2[C@@H]3C[C@H](F)C4=CC(=O)C=C[C@]4(C)[C@@]3(F)[C@@H](O)C[C@@]21C [diflorasone diacetate],-2.13
2,COc1cc(NC(C)CCCN)c2ncccc2c1 (stereo not given) [primaquine diphosphate],1.12
3,CCOc1ccc(NC(C)=O)cc1 [phenacetin],-1.32
4,Nc1ncnc2c1ncn2[C@@H]1O[C@H](CO)[C@@H](O)[C@@H]1O [vidarabine],0.593
5,CCC1=C(C)CN(C(=O)NCCc2ccc(S(=O)(=O)NC(=O)N[C@H]3CC[C@H](C)CC3)cc2)C1=O [glimepiride],0.398
6,COc1ccc2cc([C@H](C)CO)ccc2c1 [naproxol],0.0688
7,Cc1c(Cl)cccc1Nc1ccccc1C(=O)O [tolfenamic acid],-0.0448
8,Cc1cc(=O)oc2cc(O)ccc12 [hymechrome],-0.132
9,CO/C(O)=C1\C(C)=NC(C)=C(C(=O)OC(C)C)C1c1cccc2nonc12 (stereo not given) [isradipine],-0.0974
10,COc1ccc2c3c1O[C@H]1C[C@@H](O)C=C[C@@]31CCN(C)C2 [galanthamine hydrobromide],-0.101
11,O=C(O)COC(=O)Cc1ccccc1Nc1c(Cl)cccc1Cl [aceclofenac],0.481
12,Nc1nc(NC2CC2)c2ncn([C@H]3C=C[C@@H](CO)C3)c2n1 [abacavir sulfate],-1.2
13,CC(C)c1nc(CN(C)C(=O)N[C@H](C(=O)N[C@@H](Cc2ccccc2)C[C@H](O)[C@H](Cc2ccccc2)NC(=O)OCc2cncs2)C(C)C)cs1 [ritonavir],0.437
14,CCOc1ccc2nc3cc(N)ccc3c(N)c2c1 [ethacridine lactate],-2.48
15,CN1CCCCC1CCN1c2ccccc2Sc2ccc(S(C)=O)cc21 (stereo not given) [mesoridazine besylate],-0.383
16,O=C(O)CCC(=O)OC[C@@H](NC(=O)C(Cl)Cl)[C@H](O)c1ccc([N+](=O)[O-])cc1 [chloramphenicol hemisuccinate],0.685
17,CCCCCCCCCCCCCCCCOP(=O)([O-])OCC[N+](C)(C)C [miltefosine],-0.561
18,CCNC1CN(CCCOC)S(=O)(=O)c2sc(S(N)(=O)=O)cc21 (stereo not given) [brinzolamide],0.907
19,O=C(O)CCc1nc(-c2ccccc2)c(-c2ccccc2)o1 [oxaprozin],-0.0796
20,C[C@]12CC[C@@H]3c4ccc(OS(=O)(=O)O)cc4CC[C@H]3[C@@H]1CCC2=O [estropipate],0.789
21,Nc1ccc(S(=O)(=O)Nc2ccc(Cl)nn2)cc1 [sulfachlorpyridazine],-0.0787
22,CC(C)(C)CC(C)(C)c1ccc(O)c(Cc2ccc(Cl)cc2Cl)c1 [clofoctol],0.589
23,CCOC(=O)c1ccc(N)cc1 [benzocaine],1.03
24,CN1CCC(=C2c3ccccc3CCc3cccnc32)CC1 [azatadine maleate],0.879
25,N#Cc1ccc2[nH]cc(CCCCN3CCN(c4ccc5oc(C(N)=O)cc5c4)CC3)c2c1 [vilazodone hydrochloride],0.0103

row,Compound,MUC1 transcript change (Z-score)
1,C[C@H](CCC(=O)O)[C@H]1CCC2C3C(CC[C@@]21C)[C@@]1(C)CC[C@@H](O)C[C@H]1C[C@H]3O (stereo not given in full) [chenodiol],0.207
2,CCCc1nc(C(C)(C)O)c(C(=O)O)n1Cc1ccc(-c2ccccc2-c2nn[nH]n2)cc1 [olmesartan],0.248
3,CCCCC1=NC2(CCCC2)C(=O)N1Cc1ccc(-c2ccccc2-c2nn[nH]n2)cc1 [irbesartan],0.35
4,NC(Cc1c[nH]c2ccccc12)C(=O)O (stereo not given) [tryptophan],0.142
5,C[C@]12C=CC(=O)C=C1CCC1C2C(=O)C[C@@]2(C)C1CC[C@]2(O)C(=O)CO (stereo not given in full) [prednisone],0.257
6,O=C(O)[C@H]1/C(=C/CO)O[C@@H]2CC(=O)N21 [clavulanate lithium],0.722
7,Nc1nc(S)c2[nH]cnc2n1 [thioguanine],-2.3
8,OC[C@H]1O[C@H](O[C@H]2[C@H](O)[C@@H](O)[C@H](O)O[C@@H]2CO)[C@H](O)[C@@H](O)[C@@H]1O [d-(+)-maltose],0.372
9,Nc1ccn([C@@H]2O[C@H](CO)[C@@H](O)[C@@H]2O)c(=O)n1 [cytarabine],1.7
10,CN(C)CCCN1c2ccccc2CCc2ccccc21 [Imipramine hydrochloride],-0.793
11,CCCCCCCC/C=C\CCCCCCCC(=O)O [ethanolamine oleate],0.675
12,CC(c1cc2ccccc2s1)N(O)C(N)=O (stereo not given) [zileuton],0.653
13,O=C1CCc2cc(OCCCCc3nnnn3C3CCCCC3)ccc2N1 [cilostazol],0.00909
14,CC(=O)OCC(=O)[C@@]1(O)[C@@H](C)CC2C3CCC4=CC(=O)C=C[C@]4(C)[C@@]3(F)[C@@H](O)C[C@@]21C (stereo not given in full) [betamethasone acetate],0.0447
15,CCN(CC)CCCC(C)Nc1c2ccc(Cl)cc2nc2ccc(OC)cc12 (stereo not given) [Quinacrine dihydrochloride],3.28
16,CCN(CCO)CCCC(C)Nc1ccnc2cc(Cl)ccc12 (stereo not given) [hydroxychloroquine sulfate],0.718
17,C[C@]12CCC3c4ccc(O)cc4CCC3C1C[C@@H](O)[C@@H]2O (stereo not given in full) [estriol],0.189
18,NS(=O)(=O)c1cc2c(cc1C(F)(F)F)NC(Cc1ccccc1)NS2(=O)=O (stereo not given) [bendrofumethiazide],1.83
19,O=c1[nH]c(=O)c2ccccc2o1 [carsalam],0.258
20,CN1C(=O)CC(c2ccccc2)C1=O (stereo not given) [phensuccimide],0.566
21,CCCCC/N=C(\N)N/N=C/c1c[nH]c2ccc(OC)cc12 [tegaserod maleate],-0.141
22,CC(C)(C(=O)c1cccnc1)c1cccnc1 [metyrapone],-0.456
23,NCCCC(N)CC(=O)NCC1NC(=O)C(CO)NC(=O)C(N)CNC(=O)C(C2CCN=C(N)N2)NC(=O)/C(=C\NC(N)=O)NC1=O (stereo not given) [capreomycin sulfate],0.0914
24,COc1ccc(C(=O)NCc2ccc(OCCN(C)C)cc2)cc1OC [itopride  hydrochloride],0.189
25,CC(CCc1ccccc1)NCC(O)c1ccc(O)c(C(N)=O)c1 (stereo not given) [labetalol hydrochloride],0.927

# Single values from the results shown:
# In MUC1 transcript change (Z-score), `CC(=O)OCC(=O)[C@@]1(O)[C@@H](C)CC2C3CCC4=CC(=O)C=C[C@]4(C)[C@@]3(F)[C@@H](O)C[C@@]21C` (stereo not given in full) [betamethasone acetate] has 0.0447
# In MUC1 transcript change (Z-score), `O=C(O)[C@H]1/C(=C/CO)O[C@@H]2CC(=O)N21` [clavulanate lithium] has 0.722
